Values from PubChem BioAssay AID1259308 (NCATS, 2017).

Test: 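Knock-downs that increase output of a recombinant reporter protein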 (primary screen)
System: human HEK293 embryonic kidney cells stably expressing firefly luciferase (HEK-CMV-Luc2-Hygro)
Reagents: single siRNA against human genes, 0.8 pmol siRNA per well
Duration: 72 h
Read-out: 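Reporter luminescence and viable-cell signal on separate replicate plates, given as percent of non-targeting control and median/MAD z-scores, plus per-cell luciferase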
Scale: total luciferase, z-score: higher = more reporter protein produced
Rule for the call: 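An siRNA counts as active if its total luciferase robust z-score exceeds 3; genes with two or more such siRNAs out of three were retested with fresh siRNAs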
Meaning of the calls: active = raised luciferase; inactive = no rise
The whole screen tested about 59,000 reagents; below is an unselected part. About 1,510 of all reagents (2.6%) count as active. 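Calls use total luciferase alone and ignore viability, so some active siRNAs may act by altering cell number.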 Entries without a mark were called inactive. Reagents against one gene are numbered here. Not all columns of the deposit are shown.

total luciferase, z-score, by target and reagent
MID1: #1 -0.476; #2 1.3; #3 -0.343
H3C2: #1 0.261; #2 1.57; #3 3.31 (active)
OR1G1: #1 -0.885; #2 -0.682; #3 0.355
ECI1: #1 -0.747; #2 -0.891; #3 -0.14
PKP4: #1 2.02; #2 -1.53; #3 -1.04
SPACA7: #1 -0.671; #2 2.13; #3 1.25
TAOK2: #1 -0.63; #2 0.274; #3 -0.271
ZNF300: #1 0.177; #2 0.0948; #3 -0.266
THBS1: #1 0.611; #2 -1.02; #3 -1.01
ZNF321P: #1 0.331; #2 -0.929; #3 0.0936
GPR50: #1 0.282; #2 -1.28; #3 -0.808
TSLIG2: #1 -0.965; #2 0.324; #3 0.698
TNIP1: #1 -0.0151; #2 3.69 (active); #3 -0.746
CALD1: #1 0.594; #2 0.243; #3 1.33
SPRY2: #1 0.868; #2 1.54; #3 -0.573

10 entries already listed, sorted by “total luciferase, z-score”, lowest first.
target	reagent	total luciferase, z-score
GPR50	2	-1.28
TSLIG2	1	-0.965
GPR50	3	-0.808
TNIP1	3	-0.746
TNIP1	1	-0.0151
CALD1	2	0.243
TSLIG2	2	0.324
CALD1	1	0.594
TSLIG2	3	0.698
TNIP1	2	3.69 (active)

The listing continues:
total luciferase, z-score, by target and reagent
ROBO4: #1 0.774; #2 -0.544; #3 -0.404
PTGDR: #1 -1.34; #2 -0.77; #3 -0.479
CAPZA3: #1 -0.653; #2 1.58; #3 -0.81
NT5E: #1 -1.33; #2 -0.539; #3 -0.365
TMSB10: #1 3.92 (active); #2 0.142; #3 0.236
PDGFD: #1 0.23; #2 1.18; #3 1.58
SLC5A3: #1 0.919; #2 -0.0232; #3 -0.45
TUBA4A: #1 0.0314; #2 -1.81; #3 -0.417
FKBP8: #1 -0.331; #2 0.289; #3 -0.8
BCDIN3D: #1 0.0747; #2 -0.737; #3 -0.125
